PubChem BioAssay AID1347075 (National Center for Advancing Translational Sciences (NCATS), 2019)
Out of some 400,000 compounds screened, about 5,500 (1.4%) were called active. Inconclusive means that the source gave no clear call. Such entries were picked first, then a sample of the others. Calls come from the whole dose curve; as a rule, active = well fitted cell-killing curve with a large enough effect; inconclusive = small, poorly fitted or top-dose-only effect, or effect the other way; inactive = flat fitted curve, though single readings scatter. A potency beside an inconclusive call is a rough fit, not a confirmed value.

Assay: qHTS assay for MDR1-selective chemotherapeutics: Primary screen using the parental adenocarcinoma cell KB-3-1; note: nearly all actives have a fitted effect of over 60% in size
Details: KB-3-1 viability, CellTiter-Glo ATP luminescence, 72 h; activity change, negative = cytotoxic: at 46.1 µM (top of the series)
Summary of the method: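 Parental KB-3-1 viability, qHTS format: 72 h compound exposure, 37 °C; CellTiter-Glo; media-only wells and DMSO plates as controls; concentration-effect fits on corrected data.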
% is set by controls: 0 for no effect and ±100 for the full control effect; potency is the fitted concentration of half-maximal effect.

| SMILES | activity change, negative = cytotoxic | Potency |
| --- | --- | --- |
| CCCCN1C(=O)C2(OCCCO2)c2cccc(C)c21 | inactive: 4.01% |  |
| Cc1ccc(C)c(N2CCN(CCCNC(=O)Cn3cc4c(n3)CCCCC4)CC2)c1 |  | inconclusive: 29.1 µM [cytotoxic, single point] |
| C#CCn1c(C2CC(=O)N(c3ccc(OCC)cc3)C2)nc2ccccc21 (centres undefined) | inactive: 0.148% |  |
| COc1cccc(CN(Cc2cccnc2)S(=O)(=O)c2ccc(-n3cnnn3)c(C)c2)c1 |  | inconclusive: 23.1 µM [cytotoxic, single point] |
| Cc1ccc(CCNC(=O)c2ccc3c(c2)N(Cc2ccccc2)C(=O)c2ccccc2S3=O)cc1 (centres undefined) | inactive: -0.271% |  |
| Nc1ccccc1C(O)(Cc1ccccc1)c1ccccc1 (centres undefined) |  | inconclusive: 29.1 µM [cytotoxic, single point] |
| Cc1ccc(Cl)cc1N1CCN(S(=O)(=O)c2ccc3[nH]c(=O)ccc3c2)CC1 | inactive: -11% |  |
| COc1cc(OC)cc(C(=O)NNC(=O)c2ccc3ccccc3n2)c1 |  | inconclusive: 29.1 µM [cytotoxic, single point] |
| COc1ccc(-c2ccc(CN3C(C)C(=O)N(Cc4cn(Cc5ccco5)nn4)CCS3(=O)=O)cc2)cc1 (centres undefined) |  | inconclusive: 16.4 µM [cytotoxic, partial curve] |
| CC(C)c1ccc(C2c3c(-c4ccccc4O)n[nH]c3C(=O)N2Cc2ccncc2)cc1 (centres undefined) | inactive: -29.4% |  |
| CC(=O)c1cc2c(cc1NC(=O)c1cnc(C)cn1)OCO2 | inactive: 3.98% |  |
| COCOCCn1cc(CN2CCS(=O)(=O)N(Cc3ccc(-c4ccc(OC)cc4)cc3)C(CC(C)C)C2=O)nn1 (centres undefined) |  | inconclusive: 23.1 µM [cytotoxic, partial curve, poor fit] |
| C=CCc1cccc(/C=N/NC(=O)CCCNc2ccc(C)cc2)c1O |  | inconclusive: 29.1 µM [cytotoxic, single point] |
| Cc1ccccc1OCCn1c(C)nc2ccccc21 |  | inconclusive: 6.51 µM [cytotoxic, partial curve] |
| Cc1ccc(Cl)cc1NC(c1ccc(F)cc1)c1nnc(-c2ccccc2)o1 (centres undefined) |  | inconclusive: 29.1 µM [cytotoxic, single point] |
| O=C(COC(=O)c1ccc[nH]c1=O)NC1CCCCCC1 |  | inconclusive: 32.6 µM [cytotoxic, single point] |
| Cc1cccc(C)c1NC(=O)C1(C)CN(S(C)(=O)=O)CC(=O)N1C1CC1 (centres undefined) | inactive: -6.2% |  |
| COc1cccc2c1Oc1ncccc1N(c1ccc(C(=O)NCc3ccccc3Cl)s1)C2 | inactive: -0.51% |  |
| Cc1ccnc(NCn2nnc3ccccc32)c1 |  | inconclusive: 29.1 µM [rising, single point] |
| CCc1nc2c(OCCc3cccc(OC)c3)cccn2c1N(C)C(=O)c1cccs1 | inactive: -0.901% |  |
| O=C(CSc1nnc(-c2ccc(Cl)cc2)o1)Nc1ccc(F)cc1 |  | inconclusive: 25.9 µM [cytotoxic, single point] |
| CC(=O)c1cccc(-c2ccnc3c2CC(C(=O)NCC2CC2)O3)c1 (centres undefined) |  | inconclusive: 20.6 µM [cytotoxic, single point] |
| CN(C)C(=O)C1(c2ccccc2)CCN(S(=O)(=O)c2ccccc2)CC1 |  | inconclusive: 20.6 µM [cytotoxic, partial curve, poor fit] |

| SMILES | activity change, negative = cytotoxic | Potency |
| --- | --- | --- |
| CCOC(=O)c1ccc(N=c2sc(C(=O)OC)cc(=O)n2Cc2ccco2)cc1 |  | inconclusive: 29.1 µM [cytotoxic, single point] |
| CS(=O)(=O)N(CC(=O)N1CCCC1)c1ccc(OCc2ccccc2)cc1 |  | inconclusive: 29.1 µM [cytotoxic, single point] |
| CCOC(=O)c1c(C)[nH]c(C(=O)COC(=O)c2oc3ccc(OC)cc3c2C)c1C |  | active: 16.4 µM |
| Cn1c(=O)c2c(ncn2CC(=O)Nc2nc(-c3ccccc3Cl)cs2)n(C)c1=O |  | inconclusive: 20.6 µM [cytotoxic, partial curve] |
| O=C(CCN1CCOCC1)Nc1cc(C(=O)Nc2ccc(Cl)cc2)ccc1N1CC2CC(C1)c1cccc(=O)n1C2 (centres undefined) | inactive: -5.91% |  |
| Cc1noc2ncnc(Sc3ccc(Cl)cc3)c12 |  | inconclusive: 20.6 µM [cytotoxic, single point] |
| COc1ccc(OC)c(CCNC(=O)CCC(=O)N2CCOc3ccc(C)cc32)c1 | inactive: 6.86% |  |
| CCOC(=O)c1ccc(N2C(=O)c3n[nH]c(C)c3C2c2ccc(OCC)cc2)cc1 (centres undefined) |  | active: 23.1 µM |
| COc1cccc(NC(=O)c2oc3ccccc3c2NC(=O)C2CC2)c1 | inactive: 23.1% |  |
| COc1ccc(CNCCCn2cnc3c(SC)ncnc32)cc1 | inconclusive: 53.9% |  |
| Cn1c(CCN2CCCCC2)nc2cc(NC(=O)COc3ccc(Cl)cc3)ccc21 |  | inconclusive: 9.2 µM [cytotoxic, partial curve] |
| CCN(CCNC(=O)C1CCN(Cc2nc(-c3cccc(Cl)c3)oc2C)CC1)c1ccccc1 |  | inconclusive: 29.1 µM [cytotoxic, single point] |
| CCCCCCC(=O)Nc1ccc(Br)cn1 |  | inconclusive: 32.6 µM [cytotoxic, single point] |
| COc1ccc(OC(=O)Cc2cccc3ccccc23)cc1 |  | inconclusive: 18.4 µM [rising, partial curve, poor fit] |
| O=C(N/N=C/c1ccc([N+](=O)[O-])o1)C1CCCC1 |  | inconclusive: 3.26 µM [cytotoxic, partial curve, poor fit] |
| O=[N+]([O-])c1ccc(NCCCNS(=O)(=O)c2ccc(Cl)cc2)c(Cl)c1 |  | inconclusive: 16.4 µM [cytotoxic, single point] |
| CCOc1ccc(N2C(=O)CC(Sc3nc4ccc(OCC)cc4s3)C2=O)cc1 (centres undefined) |  | inconclusive: 23.1 µM [cytotoxic, single point] |
| COc1ccc(CN2CCC(n3nccc3NC(=O)c3ccc4c(c3)OCO4)CC2)cc1C |  | inconclusive: 8.2 µM [cytotoxic, partial curve, poor fit] |
| COc1cccc(CN2CCCC(C(=O)Nc3ccc(-c4cscn4)cc3)C2)c1 (centres undefined) |  | inconclusive: 29.1 µM [cytotoxic, single point] |
| O=C(COC(=O)c1ccc(O)cc1O)N=c1sccn1Cc1ccccc1Cl |  | inconclusive: 18.4 µM [cytotoxic, single point] |
| CCc1ccc(OCCCCn2c(CCNC(=O)C3CCCCC3)nc3ccccc32)cc1 |  | inconclusive: 16.4 µM [rising, partial curve, poor fit] |
| CCN(Cc1ccccc1)C(=O)c1nn(-c2ccc(OC)cc2)c(=O)c2c1c1ccccc1n2C |  | inconclusive: 29.1 µM [cytotoxic, single point] |
| O=C(N/N=C/c1cn(-c2cccs2)nc1-c1ccccc1)c1ccccc1Br | inactive: 0% |  |

| SMILES | activity change, negative = cytotoxic | Potency |
| --- | --- | --- |
| COc1ccc2c(C)c(CCC(=O)NCc3ccc(Cl)cc3)c(=O)oc2c1C | inactive: -9.31% |  |
| Cc1ccc(C(=O)N2CCN(Cc3nc4sc5c(c4c(=O)[nH]3)CCCC5)CC2)cc1 |  | inconclusive: 18.4 µM [cytotoxic, single point] |
| O=C(CN1C(=O)NC2(CCc3ccccc32)C1=O)NCc1cccc(C(F)(F)F)c1 (centres undefined) | inactive: 1.59% |  |
| Cc1c(Cl)cccc1N1C(=O)CC(Sc2ccccc2N)C1=O (centres undefined) | inactive: -30.4% |  |
| OCC1(CCc2ccccc2)CCN(Cc2cnc(N3CCCC3)s2)CC1 |  | inconclusive: 29.1 µM [cytotoxic, single point] |
| O=C(CNCc1ccccc1)Nc1ccc(Oc2ccccc2)cc1 |  | active: 5.17 µM |
| COc1ccc(-c2cc(-c3cc(C)ccc3O)[nH]n2)cc1 | inconclusive: -36.4% |  |
| O=C(COc1ccc(NC(=O)c2ccccc2)cc1)c1ccccc1 |  | inconclusive: 20.6 µM [cytotoxic, single point] |
| O=C(CSc1nc2ccccc2o1)Nc1ccccc1N1CCCCCC1 |  | inconclusive: 32.6 µM [cytotoxic, single point] |
| COCCC(=O)N1CCC(Oc2ccc(C(=O)N3CCC(N(C)C)C3)cc2)CC1 (centres undefined) | inactive: 14.2% |  |
| CCOC(=O)c1c(C)n(C)c2ccc(O)c(CN(C)C)c12 |  | inconclusive: 29.1 µM [cytotoxic, single point] |
| O=[N+]([O-])c1cc([N+](=O)[O-])c(Oc2cccnc2Br)cc1NN1CCCCC1 |  | inconclusive: 23.1 µM [cytotoxic, single point] |
| O=C(NNc1nc2ccc(Cl)cc2s1)c1cc(-c2cccs2)nc2ccccc12 |  | inconclusive: 18.4 µM [cytotoxic, partial curve, poor fit] |
| COc1ccc(N)c2c1C(=O)c1ccccc1C2=O | inactive: 6.56% |  |
| Cc1ccc(CNC(=O)C2CCCN(S(=O)(=O)c3cccc4nsnc34)C2)cc1 (centres undefined) | inactive: -5.79% |  |
| O=C(Nc1nc(-c2ccccc2)cs1)c1ccccc1NS(=O)(=O)c1ccc(F)cc1 |  | active: 6.51 µM |
| C[C@@H]1CN([C@@H](C)CO)C(=O)CCCn2nncc2CO[C@H]1CN(C)Cc1ccccc1 |  | inconclusive: 16.4 µM [rising, partial curve] |
| Cc1ccc2c(c1)C(c1ccc(F)cc1)N(C(=O)COc1ccc(Cl)cc1Cl)CC(=O)N2 (centres undefined) |  | inconclusive: 29.1 µM [cytotoxic, single point] |
| Cc1cc(C)nc(NCCCc2ccccc2)n1 | inactive: -2.09% |  |
| COc1ccc(NS(=O)(=O)c2cccc(C(=O)N/N=C(/C)c3ccc(-n4ccnc4)cc3)c2)cc1 |  | inconclusive: 20.6 µM [rising, partial curve, poor fit] |
| O=C(Nc1ccc(S(=O)(=O)N2CCCCC2)cc1)c1ccccc1F |  | inconclusive: 32.6 µM [rising, single point] |
| CCCCN(CCCC)S(=O)(=O)c1ccc(C(=O)Nc2nnc(COC)o2)cc1 |  | inconclusive: 6.51 µM [cytotoxic, partial curve] |
| CC(=O)c1ccccc1NC(=O)c1ccc2c(c1)NC(=O)C(C)S2 (centres undefined) |  | inconclusive: 18.4 µM [cytotoxic, single point] |

Structures listed so far with bromine:

| SMILES | activity change, negative = cytotoxic | Potency |
| --- | --- | --- |
| CCCCCCC(=O)Nc1ccc(Br)cn1 |  | inconclusive: 32.6 µM [cytotoxic, single point] |
| O=C(N/N=C/c1cn(-c2cccs2)nc1-c1ccccc1)c1ccccc1Br | inactive: 0% |  |
| O=[N+]([O-])c1cc([N+](=O)[O-])c(Oc2cccnc2Br)cc1NN1CCCCC1 |  | inconclusive: 23.1 µM [cytotoxic, single point] |
